The experiment deals with 125I-labeled IGF-1 (UniProt P05019). Description: Western ligand blot with 125I-labeled IGF-1.

Amino acid sequences for entries named in this document (tags omitted). A change or cut given only in a name is not applied to a line headed by its entry. Chains listed by the source or under a name are the forms on record and can include a tag or linker. Residues count along the entry.
UniProt P05019, residues 49-118: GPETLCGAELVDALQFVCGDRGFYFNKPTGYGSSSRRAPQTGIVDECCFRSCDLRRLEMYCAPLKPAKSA
IGF binding protein-3 (IGFBP-3) (P17936, residues 28-291): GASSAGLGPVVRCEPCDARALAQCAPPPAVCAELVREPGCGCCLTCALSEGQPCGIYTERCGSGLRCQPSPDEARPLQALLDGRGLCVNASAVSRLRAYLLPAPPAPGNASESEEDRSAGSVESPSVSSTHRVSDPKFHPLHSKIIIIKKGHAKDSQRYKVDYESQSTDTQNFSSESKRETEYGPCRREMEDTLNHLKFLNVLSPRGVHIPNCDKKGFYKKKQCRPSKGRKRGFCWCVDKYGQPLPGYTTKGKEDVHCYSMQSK
NLS mutant of IGFBP-3 (P17936, form named): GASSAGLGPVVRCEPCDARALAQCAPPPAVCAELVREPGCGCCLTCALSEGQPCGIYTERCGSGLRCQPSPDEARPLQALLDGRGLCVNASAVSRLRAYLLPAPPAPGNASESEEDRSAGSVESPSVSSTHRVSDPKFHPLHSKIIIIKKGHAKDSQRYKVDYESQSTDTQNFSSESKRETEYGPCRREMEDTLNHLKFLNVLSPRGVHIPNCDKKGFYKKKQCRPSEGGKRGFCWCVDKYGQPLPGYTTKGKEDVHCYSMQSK

Results are given in words; binding and its absence hold for the method and conditions named. Some entries that bind do so weakly or less than the wild type.

Turning to “NLS mutant of IGFBP-3 (from UniProt P17936 28-291)”, the binding result was “binds”.

For the substance “IGF binding protein-3 (IGFBP-3) (from UniProt P17936 28-291)”, the binding entry was “binds”.
